In patent US8551921B2, “Method for determining the toxicity of an environmental or chemical sample” (priority 2000, dated 2013):

Assays:
[1] = system: 11 different microbial strains; conditions: MTC value of the strain showing the highest sensitivity
Experimental: • dispense 150 μl of growth medium with indicator in each well • add a concentration gradient of the chemical to be tested to rows B-H in a MARA plate (i.e. an indicator device according to the present invention) • incubate for 16 h • read absorbance values; and • analyse with software.
Microbial responses to different chemicals was estimated by kinetic measurements of their growth using the Labsystem automated IEMS reader. A computer software that could monitor incubation temperatures, reading intervals, and automatically transfer OD data to a computer was developed. A growth medium containing 0.05% peptone, 0.011% bromothymol blue (BTB), 1% sodium chloride and 0.3% glucose was added to all wells. The glucose acts as a carbon source, and during growth the microorganism will break down the glucose and produce acids, that will turn the initially blue indicator to yellow. Each microplate contains 12 columns and 8 rows, and thus in each plate, 11 lyophilized microbial strains were used (one for each column, the 12th column was used as negative control). […] In order to avoid drying out of the plates during the incubation, one drop of sterile mineral oil was added to each well. The plate was then incubated in the IEMS spectrophotometer and the absorbance value from each well was measured every second hour during 48 h. […]

[2] = system: Photobacterium phosphoreum; conditions: IC50-values, established assay; cited from earlier work

CN1[C@@H]2CC[C@H]1CC(OC(=O)C(CO)c1ccccc1)C2.CN1[C@@H]2CC[C@H]1CC(OC(=O)C(CO)c1ccccc1)C2.O=S(=O)(O)O (some centres unmarked) [Atropin Sulphate]
Inhibitory concentrations by method: MARA MTCmin [1]: 2.220 mg/mL
Inhibitory concentrations by method: Microtox [2]: 3.094 mg/mL
